Experimental data from the supplement of paper PMC12889115.
The list shows a part of the results. These are raw signals, not scaled to a control.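 Primary screen: polymyxin B was added at a level permeabilizing Salmonella outer membranes while sparing inner membranes. DMSO wells, both with and without polymyxin B, established maximum growth. Plate-to-plate variation meant each plate was ranked on its own, and the lowest-OD600 compounds were selected as hits.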

System: Salmonella enterica serovar Typhimurium SL1344
Assay: bacterial growth OD600 after 18 h with compound and polymyxin B; higher = more bacterial growth (less inhibition)
Conditions: 50 µM, Mueller-Hinton broth

**Q.** `CN(Cc1cccnc1)C(=O)c1csc2nc(-c3ccccc3Cl)cn12` was tested. Which “bacterial growth OD600” value (polymyxin B 1 µg/mL) did it give?
**A.** Its value is 0.345.

**Q.** `CCn1nc(C)cc1C(=O)N1CCC(C(Cc2ccccc2F)N(C)C(=O)c2ccsc2)CC1` (configuration not stated) was tested. Which “bacterial growth OD600” value (polymyxin B 0.75 µg/mL) did it give?
**A.** The value was 0.008.

**Q.** `COc1ccccc1C1(CC(=O)N2CCCC2c2nccs2)CC(=O)N(C2CCCC2)C1=O` (configuration not stated) was tested. Which “bacterial growth OD600” value (polymyxin B 0.75 µg/mL) did it give?
**A.** Its value is 0.558.

**Q.** How did the “bacterial growth OD600” value (polymyxin B 1 µg/mL) turn out when `c1ccc(Oc2ncccc2CNCc2cccc(-n3cccn3)c2)cc1` was run?
**A.** The value was 0.955.

**Q.** For `Cc1cnccc1CN(C)c1ccc(-c2nc(Cc3ccccc3)no2)cn1`, which “bacterial growth OD600” value (polymyxin B 0.75 µg/mL) is on record?
**A.** Its value is 0.47.

**Q.** How did the “bacterial growth OD600” value (polymyxin B 1 µg/mL) turn out when `C=CCCC(=O)NC1CC(=O)N(Cc2ccccc2C(F)(F)F)C1` (configuration not stated) was run?
**A.** Its value is 0.873.

**Q.** With `CSCC(=O)NC1CCCc2c1cnn2-c1ccc(C)c(C)c1` (configuration not stated) as the compound, how does the “bacterial growth OD600” value (polymyxin B 0.75 µg/mL) read?
**A.** The value was 0.507.

**Q.** Which “bacterial growth OD600” value (polymyxin B 0.75 µg/mL) does the source give for `COc1ccc(CNC(=O)CCC2CCCN(C(=O)c3cc(C)[nH]n3)C2)c(OC)c1` (configuration not stated) here?
**A.** Its value is 0.777.

**Q.** For `Cc1oc(-c2ccc(NC(=O)Cc3ccccc3)cc2)nc1CNC(=O)Cn1c(=O)oc2ccccc21`, which “bacterial growth OD600” value (polymyxin B 0.75 µg/mL) is on record?
**A.** The value was 0.848.

**Q.** `COc1ccc(-c2nn(-c3ccccc3C)cc2CNCCNC(C)=O)cc1F` was tested. Which “bacterial growth OD600” value (polymyxin B 1 µg/mL) did it give?
**A.** The value was 0.822.

**Q.** How did the “bacterial growth OD600” value (polymyxin B 0.75 µg/mL) turn out when `CC(C)Cn1cc(C(=O)N2CCCCCC2)c(=O)c(C(=O)N2CCCC(c3ccccc3)C2)c1` (configuration not stated) was run?
**A.** Its value is 0.821.

**Q.** With `CN(CC1(O)CCCN(CC(C)(C)C)C1=O)C1CCCCC1` (configuration not stated) as the compound, how does the “bacterial growth OD600” value (polymyxin B 1 µg/mL) read?
**A.** Its value is 0.951.

**Q.** How did the “bacterial growth OD600” value (polymyxin B 1 µg/mL) turn out when `Cc1cccc(-n2ncc3c2CCCC3NC(=O)C2(C(N)=O)CC2)c1C` (configuration not stated) was run?
**A.** The value was 1.11.

**Q.** Which “bacterial growth OD600” value (polymyxin B 1 µg/mL) does the source give for `Clc1ccc2c(c1)C=C(CNC1CCCN(c3ncccn3)C1)CO2` (configuration not stated) here?
**A.** Its value is 0.751.

**Q.** For `COCc1cc(CN2CCN(Cc3ccc(OC)c(C)c3C)C(CCO)C2)ccc1OC` (configuration not stated), which “bacterial growth OD600” value (polymyxin B 1 µg/mL) is on record?
**A.** Its value is 0.821.

**Q.** How did the “bacterial growth OD600” value (polymyxin B 1 µg/mL) turn out when `FC(F)(F)c1cccc(Cc2noc(CN3CC[C@@H]4CCCC[C@H]4C3)n2)c1` was run?
**A.** Its value is 0.789.

**Q.** For `O=C(c1ccc(NCc2cccnc2)nc1)N1CCC(CCn2cccn2)CC1`, which “bacterial growth OD600” value (polymyxin B 0.75 µg/mL) is on record?
**A.** The value was 0.806.

**Q.** With `COc1ccc(CN2Cc3cc(Cl)ccc3OC(C)C2)cc1OC` (configuration not stated) as the compound, how does the “bacterial growth OD600” value (polymyxin B 0.75 µg/mL) read?
**A.** The value was 0.479.

**Q.** How did the “bacterial growth OD600” value (polymyxin B 0.75 µg/mL) turn out when `CCC1CN(C(=O)c2ccc(N(C)Cc3ccc(C)o3)nc2)CCN1C(C)C` (configuration not stated) was run?
**A.** Its value is 0.86.

**Q.** For `Cc1ccc(CN2CCN(C(=O)c3cn(C4CCCCC4)nn3)CC2=O)cc1C`, which “bacterial growth OD600” value (polymyxin B 1 µg/mL) is on record?
**A.** Its value is 0.931.

**Q.** Which “bacterial growth OD600” value (polymyxin B 1 µg/mL) does the source give for `CCN(CCO)Cc1cn(C)nc1-c1ccc(C2CCCCC2)cc1` here?
**A.** The value was 0.928.

**Q.** `Cc1nc2ncccn2c1C(=O)N1CCOC(Cc2cccc(F)c2)C1` (configuration not stated) was tested. Which “bacterial growth OD600” value (polymyxin B 0.75 µg/mL) did it give?
**A.** The value was 0.883.

**Q.** How did the “bacterial growth OD600” value (polymyxin B 1 µg/mL) turn out when `Cc1cc(C(F)(F)F)nc(CCNC(=O)c2cn(CC3CCCO3)nn2)n1` (configuration not stated) was run?
**A.** Its value is 0.812.

**Q.** How did the “bacterial growth OD600” value (polymyxin B 1 µg/mL) turn out when `CSCC(=O)N1CCCC(Nc2ccc(F)cc2)C1` (configuration not stated) was run?
**A.** Its value is 0.988.

**Q.** `CN(Cc1ccc(F)cc1)C(=O)c1coc(CN2CCN(c3ncccn3)CC2)n1` was tested. Which “bacterial growth OD600” value (polymyxin B 1 µg/mL) did it give?
**A.** The value was 0.963.

**Q.** `COc1ccc(-c2nn(-c3ccccc3C)cc2CN2CCN(C)C(=O)[C@@H]2C)cc1F` was tested. Which “bacterial growth OD600” value (polymyxin B 1 µg/mL) did it give?
**A.** Its value is 0.841.

**Q.** Which “bacterial growth OD600” value (polymyxin B 1 µg/mL) does the source give for `Cc1c(CN2CCC(CO)(CCOc3ccccc3)CC2)c(=O)n(-c2ccccc2)n1C` here?
**A.** The value was 0.838.

**Q.** With `CN(CC1CCCN(CCc2ccc(Cl)cc2)C1)C(=O)c1ccnn1C` (configuration not stated) as the compound, how does the “bacterial growth OD600” value (polymyxin B 1 µg/mL) read?
**A.** The value was 0.78.

**Q.** Which “bacterial growth OD600” value (polymyxin B 0.75 µg/mL) does the source give for `CC(C)CN1CCC(C2CCN(C(=O)COc3ccc(F)cc3)C2)CC1` (configuration not stated) here?
**A.** Its value is 0.857.

**Q.** How did the “bacterial growth OD600” value (polymyxin B 1 µg/mL) turn out when `CCOC(=O)C1(Cc2ccccc2Cl)CCN(C(=O)c2ccsc2)CC1` was run?
**A.** Its value is 0.008.

**Q.** Which “bacterial growth OD600” value (polymyxin B 1 µg/mL) does the source give for `CN1CCN([C@@H]2CCN(C(=O)c3ccc(F)c(Cl)c3)C[C@H]2O)CC1` here?
**A.** The value was 1.04.

**Q.** Which “bacterial growth OD600” value (polymyxin B 1 µg/mL) does the source give for `CC(Cn1cncn1)NC(=O)c1cc(COc2cccc(C(F)(F)F)c2)on1` (configuration not stated) here?
**A.** Its value is 0.927.
